# Experimental data taken from article PMC7774954, “Interactomic affinity profiling by holdup assay: Acetylation and distal residues impact the PDZome-binding specificity of PTEN phosphatase” (PLoS ONE, 2020).
# The source gives many values for each of these; only a part stands here. *1 amine or outer side, *2 acyl side, *3 side chain or, on linkers, in order; H or OH if unused. Where a SMILES comes first, the peptide text is derived from it. The star is where a group is joined. X1 = O=C(CCCC[C@@H]1SC[C@@H]2NC(=O)N[C@@H]21)NCCCOCCOCCOCCCN*; Suc = O=C(CCC(=O)[*:2])[*:1]
# Tested on: 266 human PDZ domains (PDZome)
# Assay: Holdup assay (chromatographic retention, PDZome-binding profile, BI)
# Parameters: key: binding intensity: 0.00 = no binding, 1.00 = maximal binding
# Protocol: The holdup method is a chromatographic approach in solution developed in our group that allows to measure the binding strength of a peptide, attached to a resin, against a library of domains of a same family. We initially proposed this method to explore the interaction between PBM peptides and the human PDZ domains. Briefly, a soluble cell lysate containing individually overexpressed PDZ domain is incubated until equilibrium with a calibrated amount of streptavidin-resin saturated either with the target biotinylated PBM peptide or with biotin as a reference. The flow-throughs containing the unbound protein fraction are recovered by filtration and loaded on a capillary electrophoresis instrument to quantify the amount of remaining free PDZ. The stronger the steady-state depletion of the PDZ domain in the flow-through as compared to the reference, the stronger the PDZ/PBM binding interaction. The assay is particularly suited to quantitatively evaluate and compare large numbers of interactions. This method delivers, for each PBM/PDZ pair, a "binding intensity" (BI), whose value can in principle range from 0.00 (no binding event detected) to 1.00 (maximal binding event). The approach has been automated and the human PDZ library was recently extended to the complete 266 PDZ domains known in human proteome. […] The high accuracy and efficiency of the holdup assay have been validated previously. Very recently, a manual version of the holdup assay with purified samples and using widespread benchtop equipment has been implemented and has proven to be reliable.
# The 266 PDZ domains that constitute the PDZ library (“PDZome V.2”) used in the present work were produced using constructs with optimized boundaries as described previously. All the genes were fused to Maltose-Binding Protein (MBP) or Thioredoxin (THR) tag often used to facilitate the solubilisation of the over-expressed protein, by cloning them into the pETG41A or pETG20A plasmid, respectively. […] The expressed tag-PDZ concentrations were quantified using capillary gel electrophoresis and cell lysates were diluted to reach approximately 5 μM tag-PDZ before freezing in 96-well plates. A detailed protocol of the PDZ library production, expression and benchmarking can be found in [32]. PDZ domains are named according to their originating protein name followed by the PDZ number (e.g. NHERF1-1 as the first PDZ domain of the NHERF1 protein).
# The holdup assay was performed on a Tecan freedom Evo200 robot with 384-well plates in singlicate for the three 11-mer PTEN variants and the 13-mer PTEN peptide as described in [31, 32]. Briefly, prior to interaction assay, 2.5 μL of streptavidin resin was saturated in each well with 20 μL of biotinylated PBM peptides (42 μM) and then washed twice with an excess of free biotin, while the reference resin was incubated only with biotin. Right before the holdup experiment, the PDZ library was spiked with an internal standard of lysozyme. Then, the biotin- or PBM-saturated resin was incubated, each in a distinct well of a 384-well plate, with complete cell lysates diluted so that the concentration of the tag-PDZ present in the crude extract is adjusted at 4 μM. After a sufficient time to reach complex equilibrium (15 min.), a fast and mild filtration step is performed and the tag-PDZ concentrations were measured by capillary electrophoresis instrument (LabChip GXII, PerkinElmer, Massachusets, USA). Standard markers were used to convert migration time into molecular weight on the LabChip software and inappropriate molecular weight markers were corrected or excluded.
# Holdup data quality check and processing […]
SMILES,BI (PDZ domain STXB4-1),BI (PDZ domain SYNJ2BP-1),BI (PDZ domain SYNP2-1),BI (PDZ domain SYNPO2L-1),BI (PDZ domain TIAM1-1),BI (PDZ domain TIAM2-1),BI (PDZ domain TJP1-1),BI (PDZ domain TJP1-2),BI (PDZ domain TJP1-3),BI (PDZ domain TJP2-1),BI (PDZ domain TJP2-2),BI (PDZ domain TJP2-3),BI (PDZ domain TJP3-1),BI (PDZ domain TJP3-2),BI (PDZ domain TJP3-3),BI (PDZ domain TX1B3-1),BI (PDZ domain USH1C-1),BI (PDZ domain USH1C-2),BI (PDZ domain USH1C-3)
CC[C@H](C)[C@H](NC(=O)[C@H](CCC(N)=O)NC(=O)[C@@H](NC(=O)[C@H](Cc1c[nH]cn1)NC(=O)[C@H](CCC(N)=O)NC(=O)[C@H](CC(=O)O)NC(=O)[C@H](CCC(=O)O)NC(=O)[C@H](CC(=O)O)NC(=O)[C@H](Cc1ccccc1)NC(=O)[C@@H]1CCCN1C(=O)CCC(=O)NCCCOCCOCCOCCCNC(=O)CCCC[C@@H]1SC[C@@H]2NC(=O)N[C@@H]21)[C@@H](C)O)C(=O)N[C@H](C(=O)N[C@@H](CCCCN)C(=O)N[C@H](C(=O)O)C(C)C)[C@@H](C)O [PTEN_13] ({X1-Suc}-PFDEDQHTQITKV-OH),0.012,-0.022,-0.11,-0.016,-0.052,0.025,0.031,0.259,-0.042,-0.017,0.182,-0.095,0.004,-0.088,-0.008,-0.012,0.022,0.038,0.076
CC[C@H](C)[C@H](NC(=O)[C@H](CCC(N)=O)NC(=O)[C@@H](NC(=O)[C@H](Cc1c[nH]cn1)NC(=O)[C@H](CCC(N)=O)NC(=O)[C@H](CC(=O)O)NC(=O)[C@H](CCC(=O)O)NC(=O)[C@H](CC(=O)O)NC(=O)CCC(=O)NCCCOCCOCCOCCCNC(=O)CCCC[C@@H]1SC[C@@H]2NC(=O)N[C@@H]21)[C@@H](C)O)C(=O)N[C@H](C(=O)N[C@@H](CCCCNC(C)=O)C(=O)N[C@H](C(=O)O)C(C)C)[C@@H](C)O [PTEN_Ac],–,–,–,–,–,–,–,0.019,-0.024,0.123,-0.035,-0.023,-0.023,-0.118,0.028,0.18,-0.024,-0.011,–
